# These are yes or no findings as the source states them, for the method shown.
# Chains of the proteins cited; added tags and fusions are not shown. Lines headed by an entry give the natural chain unless they say otherwise; changes in a name come on top. A line that says so, or that is headed by a name, gives the form on record, which may keep a tag or linker. Residues count along the entry.
# UniProt Q811U3, residues 849-922: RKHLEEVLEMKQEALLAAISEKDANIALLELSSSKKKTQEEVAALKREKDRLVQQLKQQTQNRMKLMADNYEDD
# Rab6B^Q72L D49R, GTPase domain (P61294, form named): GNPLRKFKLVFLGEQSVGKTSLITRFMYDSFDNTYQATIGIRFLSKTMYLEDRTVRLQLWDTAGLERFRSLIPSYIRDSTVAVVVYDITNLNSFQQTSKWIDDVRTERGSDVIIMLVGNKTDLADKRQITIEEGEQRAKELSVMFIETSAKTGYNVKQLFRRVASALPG
# Rab6B^Q72L R63E, GTPase domain (P61294, form named): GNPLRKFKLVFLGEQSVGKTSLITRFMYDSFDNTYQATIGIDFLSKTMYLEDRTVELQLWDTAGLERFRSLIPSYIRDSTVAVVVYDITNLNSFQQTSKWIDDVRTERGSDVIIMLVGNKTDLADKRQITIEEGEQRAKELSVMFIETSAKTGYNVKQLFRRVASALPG
# What was measured:
# [1] = molecular target: Trx-tagged ELKS1_RBD (residues 849-922) (rat) (UniProt Q811U3); test: SEC-MALS; miniDAWN TREOS coupled with an ÄKTA pure system; procedure as for analytical gel filtration; both purified
# [2] = molecular target: Rab6B^Q72L D49R, GTPase domain (mouse) (UniProt P61294); test: condition: typically 400 μM in the syringe into 40 μM in the cell; ITC; MicroCal PEAQ-ITC, 25 °C, 50 mM Tris pH 7.5, 100 mM NaCl, 2 mM MgCl2; typically one protein (400 μM) in the syringe into its binding protein (40 μM) in the cell; both purified
# [3] = molecular target: Rab6B^Q72L R63E, GTPase domain (mouse) (UniProt P61294); test: as above
Substance,binding [1],binding [2],binding [3]
Trx-tagged ELKS1_RBD (residues 849-922) (from UniProt Q811U3 849-922) (domain or fragment),no binding,,
"ELKS1_RBD, Rab-binding domain of ELKS1 (residues 849-922) (from UniProt Q811U3 849-922) (domain or fragment)",,no binding,no binding

# Reference: article PMC10267580
